## Primary screen of a compound library

Sequences of proteins named here, by UniProt entry; tags and fusion partners are left off. Residues count along the entry.
UniProt P9WPC5, whole entry: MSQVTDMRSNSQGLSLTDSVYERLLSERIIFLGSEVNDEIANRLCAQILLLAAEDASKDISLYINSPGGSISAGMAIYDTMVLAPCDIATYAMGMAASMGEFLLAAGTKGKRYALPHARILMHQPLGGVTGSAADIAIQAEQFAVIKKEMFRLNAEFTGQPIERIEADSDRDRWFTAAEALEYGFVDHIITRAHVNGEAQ
UniProt P9WPC3, whole entry partner: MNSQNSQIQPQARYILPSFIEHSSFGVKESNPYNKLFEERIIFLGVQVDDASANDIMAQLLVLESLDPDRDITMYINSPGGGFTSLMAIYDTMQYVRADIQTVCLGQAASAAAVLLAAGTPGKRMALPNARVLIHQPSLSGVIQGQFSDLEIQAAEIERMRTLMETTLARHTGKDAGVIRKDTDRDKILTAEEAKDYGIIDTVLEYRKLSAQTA
UniProt Q8IDJ8, 1-583: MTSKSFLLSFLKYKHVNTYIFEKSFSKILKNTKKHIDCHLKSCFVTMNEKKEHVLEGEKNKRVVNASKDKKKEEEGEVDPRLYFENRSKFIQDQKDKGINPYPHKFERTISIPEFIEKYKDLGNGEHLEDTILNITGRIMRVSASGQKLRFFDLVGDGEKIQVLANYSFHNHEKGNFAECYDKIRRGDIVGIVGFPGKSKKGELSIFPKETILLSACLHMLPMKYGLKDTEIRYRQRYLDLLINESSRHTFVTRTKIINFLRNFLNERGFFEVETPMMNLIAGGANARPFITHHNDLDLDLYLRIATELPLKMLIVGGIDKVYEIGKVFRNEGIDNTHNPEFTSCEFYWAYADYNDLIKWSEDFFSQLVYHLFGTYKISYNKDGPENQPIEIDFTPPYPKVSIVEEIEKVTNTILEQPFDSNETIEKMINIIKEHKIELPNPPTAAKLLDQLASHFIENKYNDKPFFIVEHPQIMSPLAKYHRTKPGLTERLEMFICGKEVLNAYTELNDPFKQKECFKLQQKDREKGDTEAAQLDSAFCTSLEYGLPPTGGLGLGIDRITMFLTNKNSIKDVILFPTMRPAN

A: 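Cell assay of Leishmania donovani living inside macrophages; the read-out is not stated. Tested at 30 µM. The record gives no direction; compounds that gave an IC50 in retests scored well above the rest, so higher reads as stronger inhibition. Size under these conditions: about 69,000 compounds, about 1,000 of them at 50% or above in at least one test.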
B: 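ClpP1P2, Mycobacterium tuberculosis (UniProt P9WPC5 and UniProt P9WPC3). Protease assay of ClpP1P2, read by the AMC dye that it sets free. Concentration: 50 µM. Higher reads as stronger inhibition, judged from the few compounds that gave an IC50. Most other retested compounds had strongly negative values. Size under these conditions: about 69,000 compounds, about 10 of them at 50% or above in at least one test.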
C: 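Assay of Toxoplasma gondii numbers, read through their beta-galactosidase reporter with a colour substrate. Concentration: 10 µM. Higher reads as fewer parasites (inferred from which compounds were picked for retests). Size under these conditions: about 67,000 compounds, about 260 of them at 50% or above in at least one test.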
D: 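Lysine-tRNA ligase, Plasmodium falciparum 3D7 (UniProt Q8IDJ8). Enzyme assay of the cytosolic lysyl-tRNA synthetase in 384-well plates, read by luminescence. Concentration: 30 µM. Higher reads as stronger inhibition, judged from the few compounds that gave an IC50. Of about 69,000 compounds tested this way, about 49 (0.071%) reached 50% or more in at least one test.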

Each number is a percent effect as filed.
The controls that fix the scale are not given in the record; negative values are as filed.
Compounds were drawn at random from those tested, without regard to their results.
Two or more numbers in one place are separate tests of the same structure; such repeats can differ widely.
A dash means the value is not listed here; it may have been measured.

compound,A,B,C,D
CN1CCN(C)c2cc(NC(=O)c3cc[nH]n3)ccc2C1,24.5,-7.99,-0.5445,1.314
CC(OCC1CC1)C(=O)NCc1cccc(CN2CCCC2=O)c1 (centres unmarked),21.75,-0.4108,-7.494,5.522
COc1ccc(CN(C(=O)C2CCCOC2)c2ccncc2)cc1 (centres unmarked),-45.06,-2.844,0.5461,1.099
CCN(Cc1cccc(C(N)=O)c1)c1ccccc1,27.48,7.004,8.552,-1.797
c1csc(CN2CCCn3cnc(CN4CCCC4)c3C2)c1,-,14.52,-,0.4644
CN1CCN(C)C2(CCN(Cc3ccc(C4CCCO4)s3)CC2)C1 (centres unmarked),38.37,0.5419,7.182,2.452
CCC1(CC)CC(=O)N(CC(O)c2cccc(F)c2)C1=O (centres unmarked),14.84,-0.6969,22.29,11.02
CC(C)Cc1nc(OCC(=O)O)c(C#N)c2c1CCCC2,-3.282 & -0.5407,-4.668,-20.54,2.55
Cc1ncc(CNCC(C)O)c2cc(C(=O)c3ccc(Br)cc3)oc12 (centres unmarked),-,-18.39,-,-1.67
Cc1noc(C)c1CN1CCOC2(CCCN(c3nncs3)C2)C1.O=C(O)C(F)(F)F (centres unmarked),17.42,-,9.352,-
O=C(NCc1ccccc1)c1nnc2ccc(N3CCOCC3)cc2n1,-28.31,9.718,-11.36,1.994
Cc1cccc(CN2CCN(C(=O)c3ccc(C)[nH]c3=O)CC2)c1,9.595,-8.794,4.012,1.668
Cc1ccc(C(=O)NCc2cccnc2N(C)C)o1,12.19,-33.07,-30.63,-0.08005
CCOC(=O)C(C)Nc1cccc(COCc2ccco2)c1 (centres unmarked),16.53,5.123,-0.8403,1.016
O=C(NCCNc1ncccn1)N1CCCC1c1ccc(F)cc1 (centres unmarked),15.04,9.686,-3.096,5.754
Cc1csc(N2CCN(Cc3cscn3)CC2C)n1 (centres unmarked),-18.36,-3.305,23.85,-5.472
O=c1c2cccnc2ccn1Cc1nccn1C1CC1,17.72,-8.815,-4.956,1.458
Cc1noc(C)c1CN1CCO[C@H]2CN(C3CCOCC3)C[C@H]21,-,13.34,-,5.452
Cc1ncccc1CNCC1CCc2nnc(C(C)C)n2C1 (centres unmarked),26.27,-4.744,13.12,-6.354
CN1CCNCC(Cc2cnc3ccccc3c2)C1 (centres unmarked),9.609,-2.744,18.03,-0.2718
Cc1cc(N2CCC(NC(=O)CCc3ccco3)CC2)nc(C)n1,6.851,-6.314,-0.2647,3.521
Cc1csc([C@@H]2C[C@H]3CN(c4ncc(F)cn4)C[C@H]3O2)n1,-,-4.18,-,2.525
COc1ccc(Cl)cc1C(=O)NCCNc1cnccn1,14.25,-0.1741,-10.54,5.291
CSc1nccn1-c1cccc(C(=O)NCc2nnc(C)n2C)c1,0.3131,1.958,-8.349,3.016
Cc1nc2c(c(NCC3Cc4ccccc4CN3C)n1)CCNCC2 (centres unmarked),11.22,-5.472,6.674,-3.829
CNc1nc(C(=O)N2CCC3(CCCN(CCOC)C3=O)C2)cs1 (centres unmarked),-21.41,-24.89,2.058,-2.626
CN(Cc1cnn(C)c1)C(=O)NCc1cc(Br)cs1,24.73,-19.49,1.014,-0.05885
CCn1cc(NC(=O)NC(CO)Cc2c[nH]c3ccccc23)cn1 (centres unmarked),24.09,4.37,10.4,5.074
CC(C)(C)C(=O)NCCc1ccn(-c2ccccc2)n1,14.61,2.211,2.306,3.412
CC(O)CNCc1c(C(C)C)nn(C)c1N1CCOCC1 (centres unmarked),0.3885,-28.26,2.739,2.282
N#CCCN(Cc1cccnc1)C(=O)Cc1ccc(-n2cnnn2)cc1,-4.651,-0.07659,1.018,-1.256
CNc1nc(CNC(=O)Nc2cccc(CSC)c2)cs1,7.159,-29.47,-10.11,-1.393
CC(C)C(c1cccnc1)N(C)C(=O)Cc1ccc(O)cc1 (centres unmarked),37.73,-0.9523,-2.817,-2.199
COCCN1CCN(Cc2ccc(C(C)=O)cc2)[C@H]2CS(=O)(=O)C[C@H]21,-,0.89,-,10.72
Cc1cc(C(F)(F)F)nc(CNc2nc(C)nc3c2cnn3C)n1,19.66,3.509,-25.87,2.378
Cc1sc(Br)cc1S(=O)(=O)NCCN.Cl,39.45,-,-2.164,-
O=C(c1ccncc1)N1CCOC2(COCCN(c3cccnc3)C2)C1 (centres unmarked),-,6.008,-,0.8442
O=C(NCCCC(=O)N1Cc2ccccc2C1)NCc1ccsc1,-4.917,-8.352,3.544,2.798
N#Cc1ccc(Cl)cc1N1CCC(OC2CCOCC2)CC1,23.04,-14.01,-3.482,0
CCn1nnc2c1C(COCCN(C)C)CN(S(=O)(=O)CC)C2 (centres unmarked),-,-9.266,-,5.483
COc1cn(CC(=O)N2CCC(c3ccccc3)CC2)c(C)cc1=O,3.313,-13.05,-29.49,6.397
CCCn1nccc1S(=O)(=O)N1CCC2(CCCN(C(C)C)C2=O)C1 (centres unmarked),-24.92,-9.63,-,0.0245
NC(=O)NCC(=O)N1C[C@H]2CC[C@@H]1CN(Cc1ccccc1)C2,-,-1.086,-,6.92

For reference, 4 entries once more:

compound,A,B,C,D
CC(C)C(c1cccnc1)N(C)C(=O)Cc1ccc(O)cc1 (centres unmarked),37.73,-0.9523,-2.817,-2.199
CCOC(=O)C(C)Nc1cccc(COCc2ccco2)c1 (centres unmarked),16.53,5.123,-0.8403,1.016
CC(C)Cc1nc(OCC(=O)O)c(C#N)c2c1CCCC2,-3.282 & -0.5407,-4.668,-20.54,2.55
Cc1sc(Br)cc1S(=O)(=O)NCCN.Cl,39.45,-,-2.164,-

Data taken from ChEMBL document CHEMBL3988442, “University of Dundee, Small-Polar-MMV Screening Library” (2021).